Data taken from article PMC8322665.
These are yes or no findings as the source states them, for the method shown. In cells and extracts the contact can be indirect. Some binding calls cover weakened binding; strength is not graded here.

The chains behind the UniProt entries cited, without tags or fusion partners. Residues count along the entry.
UniProt P60903: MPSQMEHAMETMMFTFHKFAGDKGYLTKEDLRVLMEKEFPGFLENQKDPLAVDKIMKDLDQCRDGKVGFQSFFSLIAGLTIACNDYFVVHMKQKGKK
UniProt P63165, residues 1-97: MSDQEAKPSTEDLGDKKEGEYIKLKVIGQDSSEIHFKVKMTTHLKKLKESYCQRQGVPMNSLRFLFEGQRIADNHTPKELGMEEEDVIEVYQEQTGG

Biological target: S100A10 (human (endogenous in LoVo and HCT116)) (UniProt P60903)
Assay: co-IP; total cell lysates of LoVo and HCT116 cells immunoprecipitated with anti-S100A10 and immunoblotted with anti-ubiquitin (linkage-specific K48), anti-SUMO1 or anti-SUMO2/3; control cells, PGCCs with daughter cells after CoCl2 treatment, and (SUMO1 only) cells after 5-Fu or Oxa treatment; all proteins endogenous

- binding: binds
Substance: SUMO1 (from UniProt P63165 1-97)
